Assay results published in the supplement of paper PMC11732987, “Enantioselective OTUD7B fragment discovery through chemoproteomics screening and high-throughput optimisation” (Communications Chemistry, 2025).
Some of the results follow. The data scatter; read single values as rough.

Sequences of proteins named here, by UniProt entry; tags and fusion partners are left off. A change or cut given only in a name is not applied to a line headed by its entry. Residues count along the entry.
UniProt Q9H999: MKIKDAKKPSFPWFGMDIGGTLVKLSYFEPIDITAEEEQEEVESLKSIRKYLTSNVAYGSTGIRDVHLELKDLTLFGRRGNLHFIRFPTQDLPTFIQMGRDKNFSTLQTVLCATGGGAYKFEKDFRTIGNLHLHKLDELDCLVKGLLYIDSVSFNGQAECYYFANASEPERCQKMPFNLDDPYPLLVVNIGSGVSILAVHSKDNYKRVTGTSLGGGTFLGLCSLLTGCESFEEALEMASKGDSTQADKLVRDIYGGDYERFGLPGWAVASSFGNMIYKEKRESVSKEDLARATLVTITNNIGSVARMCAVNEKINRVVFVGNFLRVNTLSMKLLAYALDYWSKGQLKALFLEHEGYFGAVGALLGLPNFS
UniProt Q9NR12, whole entry, looked up: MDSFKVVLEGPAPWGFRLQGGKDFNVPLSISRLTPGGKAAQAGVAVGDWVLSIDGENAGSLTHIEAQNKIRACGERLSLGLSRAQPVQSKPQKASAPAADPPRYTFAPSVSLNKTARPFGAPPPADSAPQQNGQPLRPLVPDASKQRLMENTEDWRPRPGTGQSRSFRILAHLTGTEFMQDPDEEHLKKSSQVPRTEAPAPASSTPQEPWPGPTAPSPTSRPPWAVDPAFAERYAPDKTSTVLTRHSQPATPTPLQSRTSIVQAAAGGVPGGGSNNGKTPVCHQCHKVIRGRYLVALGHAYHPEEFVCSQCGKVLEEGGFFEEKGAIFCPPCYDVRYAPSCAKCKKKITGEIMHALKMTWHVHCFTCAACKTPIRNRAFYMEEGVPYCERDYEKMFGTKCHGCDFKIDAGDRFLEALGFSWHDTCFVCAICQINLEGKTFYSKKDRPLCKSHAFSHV
UniProt Q14432, 519-541: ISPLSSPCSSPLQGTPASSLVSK
UniProt O95613, 2144-2164: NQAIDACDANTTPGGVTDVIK
UniProt Q16875, 148-169: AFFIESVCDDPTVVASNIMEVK
UniProt P00558, 298-323: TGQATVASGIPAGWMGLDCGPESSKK
UniProt P30039, 18-37: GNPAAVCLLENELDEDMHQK
UniProt P40855: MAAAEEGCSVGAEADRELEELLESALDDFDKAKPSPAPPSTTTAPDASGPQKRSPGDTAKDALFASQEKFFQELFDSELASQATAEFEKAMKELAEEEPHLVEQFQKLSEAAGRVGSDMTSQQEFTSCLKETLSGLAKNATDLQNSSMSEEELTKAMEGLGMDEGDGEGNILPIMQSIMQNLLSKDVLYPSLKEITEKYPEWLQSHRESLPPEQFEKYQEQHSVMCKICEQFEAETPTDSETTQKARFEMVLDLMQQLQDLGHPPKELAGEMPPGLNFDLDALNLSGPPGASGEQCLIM
UniProt Q9H4Z3: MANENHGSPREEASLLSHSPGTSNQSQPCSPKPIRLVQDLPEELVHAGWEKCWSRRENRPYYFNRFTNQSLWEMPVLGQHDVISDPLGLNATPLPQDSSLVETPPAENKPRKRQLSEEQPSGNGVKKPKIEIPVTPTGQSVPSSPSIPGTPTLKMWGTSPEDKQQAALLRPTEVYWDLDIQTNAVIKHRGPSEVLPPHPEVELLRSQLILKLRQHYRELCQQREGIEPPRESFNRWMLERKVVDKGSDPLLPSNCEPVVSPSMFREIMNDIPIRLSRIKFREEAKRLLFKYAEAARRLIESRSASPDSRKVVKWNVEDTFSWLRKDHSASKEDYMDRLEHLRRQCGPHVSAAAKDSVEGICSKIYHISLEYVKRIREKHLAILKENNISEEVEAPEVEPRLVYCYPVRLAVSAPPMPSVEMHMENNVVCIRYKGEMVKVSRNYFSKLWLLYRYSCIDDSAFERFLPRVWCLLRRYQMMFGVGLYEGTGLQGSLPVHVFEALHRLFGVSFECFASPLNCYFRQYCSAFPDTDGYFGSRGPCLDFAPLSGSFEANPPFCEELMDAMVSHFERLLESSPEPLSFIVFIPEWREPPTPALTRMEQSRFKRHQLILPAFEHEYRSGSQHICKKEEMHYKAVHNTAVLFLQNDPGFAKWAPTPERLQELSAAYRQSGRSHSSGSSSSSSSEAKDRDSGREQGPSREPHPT
UniProt Q8IZL8: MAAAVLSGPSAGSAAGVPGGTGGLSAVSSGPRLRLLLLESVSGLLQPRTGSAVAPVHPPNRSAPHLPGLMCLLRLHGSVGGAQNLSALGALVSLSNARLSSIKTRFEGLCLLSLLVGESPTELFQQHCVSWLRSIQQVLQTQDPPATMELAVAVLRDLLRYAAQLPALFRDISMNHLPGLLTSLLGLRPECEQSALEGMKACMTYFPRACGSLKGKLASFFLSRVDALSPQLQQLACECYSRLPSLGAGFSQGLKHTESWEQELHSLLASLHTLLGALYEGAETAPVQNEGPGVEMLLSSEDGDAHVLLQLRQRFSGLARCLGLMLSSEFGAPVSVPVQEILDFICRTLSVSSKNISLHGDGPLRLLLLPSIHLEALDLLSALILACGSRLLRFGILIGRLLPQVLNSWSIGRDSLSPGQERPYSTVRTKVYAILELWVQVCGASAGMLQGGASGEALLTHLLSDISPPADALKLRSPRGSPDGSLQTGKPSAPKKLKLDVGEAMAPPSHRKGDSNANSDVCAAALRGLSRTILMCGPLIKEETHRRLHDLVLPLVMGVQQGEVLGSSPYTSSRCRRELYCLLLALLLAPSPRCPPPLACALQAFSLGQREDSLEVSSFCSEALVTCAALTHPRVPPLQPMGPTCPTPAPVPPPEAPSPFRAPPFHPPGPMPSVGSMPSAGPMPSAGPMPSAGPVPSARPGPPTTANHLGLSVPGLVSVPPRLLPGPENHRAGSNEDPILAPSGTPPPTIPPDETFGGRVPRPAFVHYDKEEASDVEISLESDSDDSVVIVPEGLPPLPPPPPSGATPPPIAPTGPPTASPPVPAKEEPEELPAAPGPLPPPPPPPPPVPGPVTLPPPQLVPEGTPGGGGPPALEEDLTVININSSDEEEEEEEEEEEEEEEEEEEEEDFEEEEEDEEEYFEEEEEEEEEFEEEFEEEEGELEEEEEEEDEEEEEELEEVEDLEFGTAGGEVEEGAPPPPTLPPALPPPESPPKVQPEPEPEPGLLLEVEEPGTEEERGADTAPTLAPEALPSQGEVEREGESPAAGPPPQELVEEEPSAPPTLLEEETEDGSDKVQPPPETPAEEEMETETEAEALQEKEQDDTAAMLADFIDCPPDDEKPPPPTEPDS
UniProt Q6ZW49, whole entry, looked up: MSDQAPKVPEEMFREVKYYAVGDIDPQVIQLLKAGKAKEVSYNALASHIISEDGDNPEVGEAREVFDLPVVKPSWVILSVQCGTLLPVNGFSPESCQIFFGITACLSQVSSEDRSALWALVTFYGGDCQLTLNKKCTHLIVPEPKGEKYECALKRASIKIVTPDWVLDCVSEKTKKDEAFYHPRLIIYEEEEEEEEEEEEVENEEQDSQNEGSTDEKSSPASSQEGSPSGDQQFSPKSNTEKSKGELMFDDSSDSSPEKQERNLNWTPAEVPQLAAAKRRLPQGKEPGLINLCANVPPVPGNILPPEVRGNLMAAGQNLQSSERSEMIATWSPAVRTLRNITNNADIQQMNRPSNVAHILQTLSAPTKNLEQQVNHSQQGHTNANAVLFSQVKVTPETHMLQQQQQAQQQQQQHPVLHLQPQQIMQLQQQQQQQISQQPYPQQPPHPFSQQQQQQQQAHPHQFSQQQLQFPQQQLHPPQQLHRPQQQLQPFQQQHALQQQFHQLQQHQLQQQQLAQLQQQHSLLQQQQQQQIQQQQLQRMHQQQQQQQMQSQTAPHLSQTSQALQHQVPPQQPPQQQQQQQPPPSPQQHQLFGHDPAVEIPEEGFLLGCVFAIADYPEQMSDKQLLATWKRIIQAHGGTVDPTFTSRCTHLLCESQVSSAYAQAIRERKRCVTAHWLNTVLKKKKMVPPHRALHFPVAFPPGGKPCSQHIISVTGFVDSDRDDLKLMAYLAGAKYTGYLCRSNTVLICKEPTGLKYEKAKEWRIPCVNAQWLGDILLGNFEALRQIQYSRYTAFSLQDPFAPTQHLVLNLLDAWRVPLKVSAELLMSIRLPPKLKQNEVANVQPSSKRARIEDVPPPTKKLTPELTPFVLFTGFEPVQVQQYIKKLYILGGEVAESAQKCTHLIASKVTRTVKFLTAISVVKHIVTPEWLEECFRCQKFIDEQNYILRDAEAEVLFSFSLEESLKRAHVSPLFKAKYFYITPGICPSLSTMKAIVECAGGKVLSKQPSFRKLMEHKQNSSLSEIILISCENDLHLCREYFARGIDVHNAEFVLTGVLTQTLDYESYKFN
UniProt P55809: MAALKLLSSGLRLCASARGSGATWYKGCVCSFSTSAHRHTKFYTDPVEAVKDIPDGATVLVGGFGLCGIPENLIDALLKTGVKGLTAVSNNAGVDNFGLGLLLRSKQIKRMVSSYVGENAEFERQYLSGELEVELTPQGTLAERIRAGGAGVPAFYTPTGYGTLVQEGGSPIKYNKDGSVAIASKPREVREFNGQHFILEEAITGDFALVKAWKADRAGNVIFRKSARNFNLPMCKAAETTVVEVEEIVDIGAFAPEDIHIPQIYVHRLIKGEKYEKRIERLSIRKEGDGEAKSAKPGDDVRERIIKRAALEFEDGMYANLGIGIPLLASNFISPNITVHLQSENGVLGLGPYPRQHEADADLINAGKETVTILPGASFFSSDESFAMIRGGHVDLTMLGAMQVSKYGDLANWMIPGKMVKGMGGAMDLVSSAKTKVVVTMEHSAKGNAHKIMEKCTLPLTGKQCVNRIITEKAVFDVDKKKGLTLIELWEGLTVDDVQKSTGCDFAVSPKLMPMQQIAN

Key:
[1] = compound: ClCC(=O)N[C@@H]1CCCc2ccccc12; assay: log2 mean competition ratio of IA-DTB cysteine labelling (DMSO/compound) (log2 ratio); higher = stronger cysteine engagement by compound; details: treatment time: 4 h, cell line lysate: HEK293T
Description: (§1)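 IA-DTB competitive cysteine chemoproteomics in HEK293T RIPA lysate. Lysates were treated with compound 29 or 30 at 50 or 200 µM for 4 h, then IA-DTB (500 µM, 1 h), trypsin-digested, NeutrAvidin-enriched and analysed by diaPASEF. Competition ratio = intensity DMSO / intensity compound (n=4 treated, n=64 DMSO); binding: mean log2 CR ≥ 1 and p ≤ 0.05 plus QC filters. Target is the cysteine site.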

[2] = compound: ClCC(=O)N[C@H]1CCCc2ccccc12; assay: as above; details: treatment time: 4 h, cell line lysate: HEK293T
Description: as §1

Row | Target | log2 mean competition ratio ([1]; 50 µM) | log2 mean competition ratio ([1]; 200 µM) | log2 mean competition ratio ([2]; 50 µM) | log2 mean competition ratio ([2]; 200 µM)
1 | PANK3 C308 (UniProt Q9H999) | -0.0144 | -0.132 | -0.07 | -0.0449
2 | PDLIM7 C341 (UniProt Q9NR12) | -0.127 | -0.0772 | 0.113 | -0.0671
3 | PDE3A C526 (UniProt Q14432) | -0.071 | 0.629 | 0.179 | 0.494
4 | PCNT C2576 (UniProt O95613) | -0.00424 | -0.25 | -0.167 | -0.183
5 | PFKFB3 C155 (UniProt Q16875) | -0.746 | 0.624 | -0.395 | -0.0803
6 | PALS1 C39 | -0.131 | 0.069 | 0.104 | 0.0272
7 | PGK1 C316 (UniProt P00558) | 0.0857 | 0.288 | 0.199 | 0.127
8 | PCNT C2150 (UniProt O95613) | -0.601 | -0.008 | -0.0746 | 0.0912
9 | PBLD C24 (UniProt P30039) | 0.1 | -0.0483 | 0.0065 | 0.00391
10 | PEX19 C128 (UniProt P40855) | -0.32 | 0.127 | -0.043 | 0.142
11 | PCIF1 C524 (UniProt Q9H4Z3) | -0.153 | -0.0715 | 0.233 | 0.358
12 | PELP1 C522 (UniProt Q8IZL8) | -0.0594 | 0.322 | 0.138 | 0.154
13 | PAXIP1 C748 (UniProt Q6ZW49) | -0.0954 | -0.391 | 0.279 | -0.187
14 | PCIF1 C626 (UniProt Q9H4Z3) | 0.197 | -0.338 | 0.184 | -0.119
15 | PEX19 C8 (UniProt P40855) | -0.3 | -0.192 | -0.191 | 0.0201
16 | OXCT1 C456 (UniProt P55809) | -0.00424 | -0.38 | 0.464 | 0.142
